According to PubChem BioAssay AID1347423 (Functional Genomics Laboratory (NCATS/FGL), 2020):
The whole screen tested about 52,000 sequences, of which about 210 (0.4%) were called active.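 How the source made its calls: active means gene whose silencing raises cell survival under the drug, median off-target-corrected z-score across its silencing RNAs 2 or more; inactive means the rest.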 Some of the results follow.

Assay: Resistance to Poly (ADP-Ribose) Polymerase inhibitor: Gene Identification via Genome-wide siRNA Screen
Conditions: mouse BRCA2 R2336H ES cells, olaparib, CellTiter-Glo viability; active compounds read high
Procedure, shortened: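 Mouse BRCA2 R2336H ES cells were reverse-transfected with siRNA (20 nM final), treated at 48 h with 500 nM olaparib, and read by CellTiter-Glo after 72 h. Scores: MAD-based z per siRNA, median per gene, seed off-target correction.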

| Sequence | z-score |
| --- | --- |
| CCUGUCCUCUGGGCAUAAUTT against Olfr1276 | inactive: -0.249 |
| GCUGUACCCGAAUGAGUUUTT against Mgat2 | inactive: 0.554 |
| GGAACUGACAGAGCUUGAATT against Krtcap3 | inactive: -0.24 |
| GCCCAUGUGACGAUAACUGTT against Asrij | inactive: -0.997 |
| GGGUUUGGCUCGGUGUAUATT against Mos | inactive: -0.202 |
| CCACCCUGCCUAGAAACUUTT against Tmem8 | inactive: -0.429 |
| CCAUAAUUCAGCUAGACCUTT against Axin1 | inactive: 0.526 |
| GGCAUUGAGAUGAAAUGAATT against 4933427E11Rik | inactive: 0.618 |
| GGAGUUCUUCGUUUCCCGATT against E330017E16 | inactive: -0.179 |
| CCGUGGAUUGUGGAAUAAUTT against E430012M05Rik | inactive: 0.194 |
| GGUGAACACCGUUCAGUUUTT against 1500041N16Rik | inactive: 0.537 |
| CCAGAUUUUUACCAUGAAGTT against Slc2a5 | inactive: 1.67 |
| CCCAUUGGAACUGCUGUAATT against BC019776 | inactive: 1.61 |
| GGUAUAUCCCUCACAAAAGTT against D330014H01Rik | inactive: 0.996 |
| CGGGAUAUUAGGUUAUUCCTT against Csad | inactive: 0.199 |
| GCCCAUCCCUUCCUUACGATT against C330027G06Rik | inactive: 1.48 |
| GGAUGUCACUCUUGCAUUGTT against Olfr948 | inactive: -1.43 |
| CCUACCCAAACCUACUAAATT against Gpt2 | inactive: -0.724 |
| GGACAGCAGUCAGGAGACATT against BC017158 | inactive: -0.365 |
| GACAGGUCAUGAAAAUGAGTT against Smurf2 | inactive: -0.0544 |
| GGAUCGUGAGGAUCAAUCCTT against Myh14 | inactive: 0.224 |
| GGAAAGAAACAAGACAGAATT against Cul3 | inactive: -1.12 |
| GCCAACAAUAUAAUUCAAGTT against Abca5 | inactive: 1.93 |
| GGCUAUUGAGCUCUUUGUCTT against 1810019P04Rik | inactive: -1.75 |
| GGUACUGCUGCUUCAGCAUTT against Palm2 | inactive: 0.471 |
| GGCUGAAAGCAAAACUUAATT against Klhl4 | inactive: 1.3 |

| Sequence | z-score |
| --- | --- |
| GGUUUUUACUUUUUGGUCCTT against Tm4sf11 | inactive: 0.169 |
| GGCAUGUUCUCUAAGGAAGTT against C920025J10 | inactive: 0.264 |
| GGAUGAGCUAAAUAAAGCUTT against Slc6a15 | inactive: 1.09 |
| GUUCUUCUCUGUUGGUGCUTT against V1rc18 | inactive: 3.03 |
| GGAAAUAAAUGAGUGUUUGTT against Slc35c2 | inactive: 0.62 |
| GCAAUGUGUAUCAGCCGACTT against Gprc5b | inactive: -0.195 |
| GGACUUUGUAACUAAUACCTT against Slco2b1 | inactive: -0.309 |
| GGAGGUUCUUCAGUACUGCTT against Aplp2 | inactive: 0.175 |
| GGAAAAAGCAUAGAUAGGUTT against Amigo3 | inactive: 0.426 |
| CCAACUUAUCAACAUCCGGTT against Plekha6 | inactive: 1.56 |
| GGAGAAAAUAAACUCUCUCTT against Capns1 | inactive: 0.434 |
| GGAGAUCCUGGAAGACUUCTT against 4833422F24Rik | inactive: -1.85 |
| CGUUCUUUUACAGUGCUUGTT against Rnf127 | inactive: 0.142 |
| CCUCGUUACAUCCUCCCUGTT against Pold1 | inactive: -2.15 |
| GGCCAUCAAAUCUAUAUACTT against Sucnr1 | inactive: 2.02 |
| GGCAACAUGAUGAUUAUAGTT against Olfr1220 | inactive: -0.523 |
| GGUGAUGGUAGCAAGACUGTT against Dcpp | inactive: -0.267 |
| GGAAGAGCUUCAUCAGCCATT against Acoxl | inactive: -0.685 |
| GAUUUUGGGAAUAUAGUGCTT against Klra16 | inactive: -0.568 |
| GGUAUUUAUUGACAGGUGATT against Eat2 | inactive: 0.828 |
| GCAUUUCUUUCUUGCCUUCTT against Olfr1276 | inactive: 0.613 |
| GCUCAGUCUCUUGGGUGGUTT against Cel | inactive: -0.868 |
| GCAUACGAUAUCACCAUAUTT against Dsg1a | inactive: 1.78 |
| GGUAGAAGAAUUCAGUUUUTT against Smpd3 | inactive: 0.155 |
| GCUAGCCAUGGUUACCCACTT against Slc39a3 | inactive: -0.618 |
| GGCAACAAUAGUUCAGAAGTT against Rps6ka5 | inactive: 0.539 |

Reformatted as comma-separated lines: part of the list above
Sequence,z-score
GGAGUUCUUCGUUUCCCGATT against E330017E16,inactive: -0.179
CCGUGGAUUGUGGAAUAAUTT against E430012M05Rik,inactive: 0.194
GGUGAACACCGUUCAGUUUTT against 1500041N16Rik,inactive: 0.537
CCAGAUUUUUACCAUGAAGTT against Slc2a5,inactive: 1.67
CCCAUUGGAACUGCUGUAATT against BC019776,inactive: 1.61
GGUAUAUCCCUCACAAAAGTT against D330014H01Rik,inactive: 0.996
CGGGAUAUUAGGUUAUUCCTT against Csad,inactive: 0.199
GCCCAUCCCUUCCUUACGATT against C330027G06Rik,inactive: 1.48
GGAUGUCACUCUUGCAUUGTT against Olfr948,inactive: -1.43
CCUACCCAAACCUACUAAATT against Gpt2,inactive: -0.724
GGACAGCAGUCAGGAGACATT against BC017158,inactive: -0.365
GACAGGUCAUGAAAAUGAGTT against Smurf2,inactive: -0.0544
GGAUCGUGAGGAUCAAUCCTT against Myh14,inactive: 0.224
GGAAAGAAACAAGACAGAATT against Cul3,inactive: -1.12
GCCAACAAUAUAAUUCAAGTT against Abca5,inactive: 1.93
GGCUAUUGAGCUCUUUGUCTT against 1810019P04Rik,inactive: -1.75
GGUACUGCUGCUUCAGCAUTT against Palm2,inactive: 0.471
GGCUGAAAGCAAAACUUAATT against Klhl4,inactive: 1.3
GGUUUUUACUUUUUGGUCCTT against Tm4sf11,inactive: 0.169
GGCAUGUUCUCUAAGGAAGTT against C920025J10,inactive: 0.264
GGAUGAGCUAAAUAAAGCUTT against Slc6a15,inactive: 1.09
GUUCUUCUCUGUUGGUGCUTT against V1rc18,inactive: 3.03
GGAAAUAAAUGAGUGUUUGTT against Slc35c2,inactive: 0.62
GCAAUGUGUAUCAGCCGACTT against Gprc5b,inactive: -0.195
GGACUUUGUAACUAAUACCTT against Slco2b1,inactive: -0.309
GGAGGUUCUUCAGUACUGCTT against Aplp2,inactive: 0.175
GGAAAAAGCAUAGAUAGGUTT against Amigo3,inactive: 0.426
CCAACUUAUCAACAUCCGGTT against Plekha6,inactive: 1.56

An excerpt of these results, with each value named.
GGAACUGACAGAGCUUGAATT against Krtcap3
  z-score: inactive: -0.24
CCGUGGAUUGUGGAAUAAUTT against E430012M05Rik
  z-score: inactive: 0.194
GGUGAUGGUAGCAAGACUGTT against Dcpp
  z-score: inactive: -0.267

Further records follow:

| Sequence | z-score |
| --- | --- |
| GCCAUACUUCCCUACAAAATT against 4922504H04Rik | inactive: 0.865 |
| GGGUGUUUGGAGAUUGUGUTT against C030036P15Rik | inactive: -0.604 |
| CCUGGAAACUAUUUUGAUGTT against 3110023G01Rik | inactive: 0.259 |
| CCUCAUGUCUACAAAGUUATT against 9130002C22Rik | inactive: -0.524 |
| CCUUUCCUGACAAUGUACATT against Pvrl1 | inactive: 0.235 |
| GGAUGAUGGAAUAUCUCAATT against Pcdhb10 | inactive: 1.36 |
| CCAUCGAUCACGUCAAAGGTT against 1810017N16Rik | inactive: 1.79 |
| GGAGGAAUUCUCCUUAUUCTT against Cnnm3 | inactive: -0.749 |
| GGCCUGUUUUUAAAAAGGATT against Tm4sf2 | inactive: -0.222 |
| CCAAUGAGAGGUAAAAAACTT against C630007B19Rik | inactive: 0.119 |
| CCUUCCAAUCUGGUUAAGUTT against Spock1 | inactive: 1.65 |
| GCCGGAUGAAGGACUUUACTT against Dcc | inactive: -1.03 |
| GCCCAAUUUUACAUUGUUUTT against Gpx1 | inactive: -0.866 |
| CCCACUUUGAGGAAAGCUATT against BC063749 | inactive: -0.333 |
| GGUAUUCUUCGAAUUUUUCTT against Egln1 | inactive: 1.26 |
| GGAUGGUAGCAGCAACAACTT against Grem2 | inactive: 2.52 |
| GGAGCUUGAAUAUGUUCUATT against Capn9 | inactive: 1.4 |
| CCAAAACACUACCAAUAAUTT against Tinag | inactive: 0.423 |
| GGGCAGAUCCUAAUAAGCATT against Irs3 | inactive: 0.585 |
| GCAACAUCAGGUAACCUUUTT against Zfp526 | inactive: -0.5 |
| GGAGCAGAUGGUCCAUUGUTT against Ly6g5c | inactive: -2.27 |
| CGGAGAGUAUGAGAGUUCCTT against D17Ertd288e | inactive: 0.0647 |
| GGAGGAGGACUUUGAUGACTT against 5830417I10Rik | inactive: -0.0133 |
| GGCUCUUGGAUAUUUCCGATT against 2610027L16Rik | inactive: -0.315 |
| GGAGGAGAAAACAGGAAUUTT against H2-Eb1 | inactive: -0.0615 |
| GCUGCUUCAUGCAAGACCUTT against Zswim1 | inactive: 0.239 |

| Sequence | z-score |
| --- | --- |
| GGACACCACCGACUUUUUUTT against 2310073E15Rik | inactive: 0.311 |
| CCCAAACAUUGAAGCUCUGTT against Fez1 | inactive: -0.656 |
| GGAGGCUCUAAAGAGACACTT against Olfr498 | inactive: 1.09 |
| GCAGAGCGAUUAUAUGGACTT against Rnpepl1 | inactive: -0.599 |
| CCUGCUCUCCUCAUUAUGUTT against 6530404N21Rik | inactive: -0.252 |
| GCAAAAGACCAUCUGAGUGTT against BC054059 | inactive: 0.689 |
| CGGUGAUGGUUCAUUUGCATT against D11Bwg0280e | inactive: 0.368 |
| GGCUCUAUCUUAAAAUAACTT against 4930542C12Rik | inactive: 0.213 |
| GGAGCUACGAAAAUUAACATT against B230114P05Rik | inactive: -1.89 |
| CCGAGAACUUGACUCUUCATT against Ppp1r15b | inactive: 2.11 |
| GGCCUACAUACUCCUGAAGTT against ttc21a | inactive: -2.41 |
| GGACUAAGAUUUGUGUUAGTT against 0610011N22Rik | inactive: -0.334 |
| GGCUAUGUCAUUUACAGGATT against Rpl15 | inactive: -3.26 |
| GGCCGUGUUAAGGAAUCUGTT against Cidea | inactive: -1.02 |
| GCAAAGCUACUCACUUCUUTT against Nck2 | inactive: 1.04 |
| CCAUGUUACGGAUUAUCUATT against BC037651 | inactive: -0.678 |
| GGAUGAGAAACUUCAGCUGTT against 2810451A06Rik | inactive: 0.0917 |
| GGAUGAUAUAGUUUGUACCTT against Kctd7 | inactive: 0.111 |
| GGACUUCAGUUACAACCGGTT against Nr1h3 | inactive: 4.24 |
| GCAGAUGGUACUACUGAGCTT against Egfl7 | inactive: 0.404 |
| GCUUCUCUACACCACAGACTT against Olfr796 | inactive: 0.598 |
| GGACUGUUCUUUCAAUAAGTT against Disp2 | inactive: -0.448 |
| CCGCUUUCGGCAAGUAUGGTT against 1700012H05Rik | inactive: -0.0385 |
| GCAGAGAUUACACAAAUAGTT against Brd7 | inactive: -1.3 |
| GGUAGGGUUUCAUUAUGAATT against 1500003D12Rik | inactive: 0.908 |
